Some of these results come from one statement about several compounds together.
How the values were obtained:
Assay type in all cases: in vivo
[1] = test system: Spodoptera littoralis (Egyptian Cotton Leaf Worm); assay: Spodoptera littoralis cotton leaf disc spray test, L1 larvae; conditions: application rate 200 ppm; L1 larvae on cotton leaf discs; 3 days after infestation
Experimental: Spodoptera littoralis (Egyptian Cotton Leaf Worm)
(§1) Cotton leaf discs were placed on agar in 24-well microtiter plates and sprayed with aqueous test solutions prepared from 10,000 ppm DMSO stock solutions. After drying the leaf discs were infested with five L1 larvae. The samples were assessed for mortality 3 days after infestation.

[2] = test system: Plutella xylostella (Diamond Back Moth); assay: Plutella xylostella L2 larvae on treated artificial diet; conditions: application rate 200 ppm, 5 days after infestation
Experimental: 24-well microtiter plates with artificial diet were treated with aqueous test solutions prepared from 10,000 ppm DMSO stock solutions by pipetting. After drying, the plates were infested with L2 larvae (10 to 15 per well). The samples were assessed for mortality 5 days after infestation.

[3] = test system: Diabrotica balteata, (Corn Root Worm); assay: Diabrotica balteata L2 larvae on sprayed maize sprouts; conditions: application rate 200 ppm, 4 days after infestation
Experimental: Maize sprouts, placed on an agar layer in 24-well microtiter plates were treated with aqueous test solutions prepared from 10,000 ppm DMSO stock solutions by spraying. After drying, the plates were infested with L2 larvae (6 to 10 per well). The samples were assessed for mortality 4 days after infestation.

[4] = test system: Thrips tabaci (Onion Thrips); assay: Thrips tabaci sunflower leaf disc spray test; conditions: application rate 200 ppm; mixed ages on sunflower leaf discs; 6 days after infestation
Experimental: Thrips tabaci (Onion Thrips):
as §1, with “Sunflower” for “Cotton”, “a thrips population of mixed ages.” for “five L1 larvae.”, “6” for “3”

[5] = test system: Tetranychus urticae (Two-Spotted Spider Mite); assay: Tetranychus urticae bean leaf disc spray test; conditions: application rate 200 ppm; mixed population (mobile stages) on bean leaf discs; 8 days after infestation
Experimental: Tetranychus urticae (Two-Spotted Spider Mite):
Bean leaf discs on agar in 24-well microtiter plates were sprayed with aqueous test solutions prepared from 10,000 ppm DMSO stock solutions. After drying the leaf discs were infested with a mite population of mixed ages. The samples were assessed for mortality on mixed population (mobile stages) 8 days after infestation.

[6] = test system: Myzus persicae (Green Peach Aphid); assay: Myzus persicae sucrose solution feeding test through Parafilm; conditions: test rate 12 ppm, 5 days after infestation
Experimental: Myzus persicae (Green Peach Aphid)
Test compounds from 10,000 ppm DMSO stock solutions were applied by pipette into 24-well microtiter plates and mixed with sucrose solution. The plates were closed with a stretched Parafilm. A plastic stencil with 24 holes was placed onto the plate and infested pea seedlings were placed directly on the Parafilm. The infested plate was closed with a gel blotting paper and another plastic stencil and then turned upside down. The samples were assessed for mortality 5 days after infestation.

Measured: mortality

CC(C)(F)C(=O)NCSc1ccc(C2=NO[C@@](c3cc(Cl)cc(Cl)c3)(C(F)(F)F)C2)cc1Br [Compound B1]
at least 80%: [1] | [2] | [3] | [4]

COCC(=O)NCSc1ccc(C2=NO[C@@](c3cc(Cl)cc(Cl)c3)(C(F)(F)F)C2)cc1Br [Compound B2]
not listed: [6]
at least 80%: all other assays above

CSCC(=O)NCSc1ccc(C2=NO[C@@](c3cc(Cl)cc(Cl)c3)(C(F)(F)F)C2)cc1Br [Compound B5]
at least 80%: [1] | [2] | [4] | [5]

CC(C)(C)C(=O)NCSc1ccc(C2=NO[C@@](c3cc(Cl)cc(Cl)c3)(C(F)(F)F)C2)cc1Br [Compound B7]
at least 80%: [1] | [2] | [3]

O=C(NCSc1ccc(C2=NO[C@@](c3cc(Cl)cc(Cl)c3)(C(F)(F)F)C2)cc1Br)c1ccc(Cl)nc1 [Compound B9]
at least 80%: [2]

O=C(NCSc1ccc(C2=NO[C@@](c3cc(Cl)cc(Cl)c3)(C(F)(F)F)C2)cc1Br)C(F)(F)C(F)(F)F [Compound B10]
at least 80%: [1] | [4]

CCC(=O)NCSc1ccc(C2=NO[C@@](c3cc(Cl)cc(Cl)c3)(C(F)(F)F)C2)cc1Br [Compound B11]
at least 80%: all assays above

CCCC(=O)NCSc1ccc(C2=NO[C@@](c3cc(Cl)cc(Cl)c3)(C(F)(F)F)C2)cc1Br [Compound B12]
at least 80%: all assays above

O=C(NCSc1ccc(C2=NO[C@@](c3cc(Cl)cc(Cl)c3)(C(F)(F)F)C2)cc1Br)C(F)F [Compound B13]
at least 80%: [1] | [2] | [4] | [5]

Source: patent US9675073B2, “Insecticidal compounds based on N-arylsulfanylmethylcarboxamidearylthiosulfonamides derivatives” (Syngenta Participations AG, priority 2012, dated 2017)
